Source: publication PMC5379069, “A Pseudomonas T6SS effector recruits PQS-containing outer membrane vesicles for iron acquisition” (Nature Communications, 2017)

B1: FptA, the Fe(III)-pyochelin receptor (receptor, UniProt P42512 39-720)
chain: DARKDGETELPDMVISGESTSATQPPGVTTLGKVPLKPRELPQSASVIDHERLEQQNLFSLDEAMQQATGVTVQPFQLLTTAYYVRGFKVDSFELDGVPALLGNTASSPQDMAIYERVEILRGSNGLLHGTGNPAATVNLVRKRPQREFAASTTLSAGRWDRYRAEVDVGGPLSASGNVRGRAVAAYEDRDYFYDVADQGTRLLYGVTEFDLSPDTLLTVGAQYQHIDSITNMAGVPMAKDGSNLGLSRDTYLDVDWDRFKWDTYRAFGSLEQQLGGGWKGKVSAEYQEADSRLRYAGSFGAIDPQTGDGGQLMGAAYKFKSIQRSLDANLNGPVRLFGLTHELLGGVTYAQGETRQDTARFLNLPNTPVNVYRWDPHGVPRPQIGQYTSPGTTTTTQKGLYALGRIKLAEPLTLVVGGRESWWDQDTPATRFKPGRQFTPYGGLIWDFARDWSWYVSYAEVYQPQADRQTWNSEPLSPVEGKTYETGIKGELADGRLNLSLAAFRIDLENNPQEDPDHPGPPNNPFYISGGKVRSQGFELEGTGYLTPYWSLSAGYTYTSTEYLKDSQNDSGTRYSTFTPRHLLRLWSNYDLPWQDRRWSVGGGLQAQSDYSVDYRGVSMRQGGYALVNMRLGYKIDEHWTAAVNVNNLFDRTYYQSLSNPNWNNRYGEPRSFNVSLRGAF
B2: porin OprF (protein, UniProt P13794 25-350)
chain: QGQNSVEIEAFGKRYFTDSVRNMKNADLYGGSIGYFLTDDVELALSYGEYHDVRGTYETGNKKVHGNLTSLDAIYHFGTPGVGLRPYVSAGLAHQNITNINSDSQGRQQMTMANIGAGLKYYFTENFFAKASLDGQYGLEKRDNGHQGEWMAGLGVGFNFGGSKAAPAPEPVADVCSDSDNDGVCDNVDKCPDTPANVTVDANGCPAVAEVVRVQLDVKFDFDKSKVKENSYADIKNLADFMKQYPSTSTTVEGHTDSVGTDAYNQKLSERRANAVRDVLVNEYGVEGGRVNAVGYGESRPVADNATAEGRAINRRVEAEVEAEAK

Molecular target: GST-TseF (Pseudomonas aeruginosa PAO1) (UniProt Q9I1A5)
Test: affinity purification with mass spectrometry; 40 μg purified GST-TseF (or GST) incubated with cleared P. aeruginosa cell lysates (PBS, 5 mM MgCl2, 1% Triton X-100) at 4 °C overnight; glutathione-Sepharose beads; washed five times with TEN buffer (300 mM NaCl); SDS-PAGE, silver staining, bands identified by MALDI mass spectrometry; lysates of wild type and of mutants lacking H3-T6SS or TseF; only the target purified

| Binder | binding |
| --- | --- |
| B1 | binds |
| B2 | binds |

Results are given in words; binding and its absence hold for the method and conditions named. Binding seen in cells or lysates may run through a third protein. A yes stands for co-enrichment or nearness to the bait. Other partners may have been found.
